# Laboratory results published in PubChem BioAssay AID2685 (National Center for Advancing Translational Sciences (NCATS), 2010).
# This is one part of the list. The main result of the screen is listed elsewhere. These columns were measured beside it and carry no call. Most of these compounds were active or inconclusive in the main read-out, so they are no random draw. Potencies come from curve fits of mixed quality, noted in brackets.
# Assay: qHTS Assay for Lipid Storage Modulators in Drosophila S3 Cells;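 on cell number change: cells counted by Cell Tracker Red CMTPX staining in the red channel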
# Details: BODIPY lipid droplet fluorescence, 18-24 h; for cell number change: measured here: cell count max response, cells fed with added oleic acid
# In short: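 Laser-scanning cytometry quantifies lipid droplet accumulation (500–530 nm total intensity; droplet/cell object ratio) in oleic acid-fed (400 uM added) Drosophila S3 cells treated with a concentration series. 20 uM Triacsin C defined 100% inhibition.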
# [1] = measured here: cell number channel AC50, cells fed with added oleic acid
# [2] = measured here: lipid fluorescence (Fed channel) AC50, cells fed with added oleic acid
SMILES,cell number change [%],AC50 [1],AC50 [2]
CC(=O)Nc1ccc(OCC(O)CN2CCN(c3ccc(F)cc3)CC2)cc1 (stereo not given),30.2,"0.0231 µM [rising, full curve, poor fit]",
COc1cc(C(C)=O)ccc1OCC(O)CNCC1(N2CCCCC2)CCCCC1 (stereo not given),12.3,,
Cc1cc(N2C(=O)C3C4CC(c5ccccc5)C(C4)C3C2=O)no1 (stereo not given),-24.2,,"29.1 µM [falling, single point]"
CC(C)(C)c1ccc(C(=O)O)c(C(=O)c2ccc(C(=O)O)cc2)c1,-7.68,,"8.2 µM [falling, partial curve]"
O=C(CC(=O)N/N=C\c1ccccc1)NCCc1ccccc1,13.1,,"32.6 µM [rising, single point]"
COC(=O)c1sc(NC(=O)c2cc(-c3ccccc3)nc3ccccc23)c(C#N)c1C,-24.8,,"0.58 µM [rising, full curve, poor fit]"
Cc1[nH]c2ccc(C(=O)N3CCCCC3)cc2c1C,12.7,,"2.59 µM [rising, single point]"
Cc1c(C(=O)NCCSCc2c(Cl)cccc2Cl)cccc1[N+](=O)[O-],3.81,,"0.0731 µM [rising, full curve, poor fit]"
COc1ccc(-c2n[nH]c(C)c2-c2ccccc2OC)c(O)c1,-6.94,,
Cc1c(C(=O)O)[nH]c2c1C(=O)CC(c1ccc(Cl)cc1)C2 (stereo not given),11.8,"0.164 µM [falling, full curve, poor fit]",
COc1ccc(F)c(-c2nc(CN3CCC(c4ccccc4)CC3)c(C)o2)c1,-10.2,"6.51 µM [falling, single point]","6.51 µM [falling, single point]"
O=c1[nH]c(/C=C\c2cccc(Cl)c2)nc(O)c1[N+](=O)[O-],20.4,"0.00411 µM [rising, full curve, poor fit]","29.1 µM [rising, single point]"
O=C(CN1CCN(c2ccccn2)CC1)Nc1ccc(Br)cc1,10.3,,"4.61 µM [rising, full curve, poor fit]"
O=C(N1CCOCC1)N(CCN1CCOCC1)Cc1cccc(Cl)c1,17.7,"4.11 µM [rising, single point]",
O=C(Nc1nc2ccc(Oc3ccccc3)cc2s1)c1cc([N+](=O)[O-])ccc1N1CCOCC1,-21.6,,"13 µM [falling, single point]"
CCc1cc(-c2n[nH]c(C)c2-c2nc3ccccc3s2)c(O)cc1OCC(=O)NN,-35.9,"3.66 µM [falling, full curve]",
CSc1ccccc1C(=O)NCCSc1ccccc1,35.5,"0.82 µM [rising, full curve]","23.1 µM [rising, partial curve]"
CC(C1CC2CCC1C2)n1c(-c2ccco2)n[nH]c1=S (stereo not given),,"2.31 µM [rising, partial curve]","3.26 µM [rising, partial curve]"

SMILES,cell number change [%],AC50 [1],AC50 [2]
COc1cccc(C(=O)Nc2c3c(nn2-c2cccc(C)c2C)CS(=O)(=O)C3)c1OC,,"1.64 µM [rising, partial curve, poor fit]","0.82 µM [rising, partial curve]"
CC(=O)Oc1ccc(C(=O)Nc2ccc3c(c2)C(=O)N(CCC(=O)O)C3=O)cc1,-13.3,"0.103 µM [falling, full curve, poor fit]","0.731 µM [falling, full curve]"
Cc1ccc(C(=O)OC2=CC(=O)CC(C)(C)C2)cc1,6.61,,"29.1 µM [falling, single point]"
COc1ccc(-c2nc3ncccc3o2)cc1NC(=O)c1ccco1,-26.9,,
Cc1ccc(S(=O)(=O)NCCN=C(CN2CCCC2)NS(=O)(=O)c2ccc(C)cc2)cc1,-2.36,"4.11 µM [falling, single point]",
O=CC1=C(N2CCOCC2)/C(=C/c2ccc(Cl)cc2)CC1,,"6.51 µM [falling, single point]","4.61 µM [falling, single point]"
COc1cc(CNn2cnnc2)ccc1OCC(=O)NC(C)(C)C,-4.65,,"6.51 µM [falling, single point]"
Nc1cccc(-n2nncc2-c2ccc(Cl)cc2)c1,-25.4,,"0.82 µM [rising, full curve]"
COc1ccc(CCNC(=O)c2cccc(S(=O)(=O)N3CCCCCC3)c2)cc1,-19.3,,"3.66 µM [falling, full curve, poor fit]"
COC(=O)c1ccc(NC(=O)Nc2ccc3c(c2)OCO3)cc1,-1.81,,"31.6 µM [rising, single point]"
COc1ccc(-n2nnnc2S(=O)(=O)CC(=O)N2CCCCC2)cc1,-64.3,"23.1 µM [falling, single point]","1.84 µM [falling, partial curve]"
CC(=O)N1CCCc2cc(S(=O)(=O)CCC(=O)N3CCN(c4ccccc4)CC3)ccc21,7.64,,"2.91 µM [rising, single point]"
O=C(Nc1nc2cc3c(cc2s1)OCCO3)c1ccco1,-20.8,,
COc1ccc(OC)c2[nH]c(=O)c(CCNC(=O)C(C)C)cc12,60.2,"7.31 µM [rising, partial curve]","7.31 µM [rising, partial curve]"
CC(C)OC(=O)CSc1ncnc2c1cnn2-c1ccccc1,120,"14.6 µM [rising, partial curve, poor fit]","0.651 µM [rising, partial curve, poor fit]"
Cc1ccc(C(=O)NCC(=O)OCc2cccc(Br)c2)cc1,78.3,"29.1 µM [rising, single point]","6.51 µM [falling, partial curve, poor fit]"
Cc1ccc(C(=O)CC2(O)C(=O)Nc3ccccc32)s1 (stereo not given),-151,"20.6 µM [falling, partial curve]","23.1 µM [falling, partial curve]"

# No new results follow: entries from further up.
SMILES,cell number change [%],AC50 [1],AC50 [2]
Cc1c(C(=O)O)[nH]c2c1C(=O)CC(c1ccc(Cl)cc1)C2 (stereo not given),11.8,"0.164 µM [falling, full curve, poor fit]",
COc1ccc(F)c(-c2nc(CN3CCC(c4ccccc4)CC3)c(C)o2)c1,-10.2,"6.51 µM [falling, single point]","6.51 µM [falling, single point]"
O=c1[nH]c(/C=C\c2cccc(Cl)c2)nc(O)c1[N+](=O)[O-],20.4,"0.00411 µM [rising, full curve, poor fit]","29.1 µM [rising, single point]"
O=C(CN1CCN(c2ccccn2)CC1)Nc1ccc(Br)cc1,10.3,,"4.61 µM [rising, full curve, poor fit]"
O=C(N1CCOCC1)N(CCN1CCOCC1)Cc1cccc(Cl)c1,17.7,"4.11 µM [rising, single point]",
O=C(Nc1nc2ccc(Oc3ccccc3)cc2s1)c1cc([N+](=O)[O-])ccc1N1CCOCC1,-21.6,,"13 µM [falling, single point]"
CCc1cc(-c2n[nH]c(C)c2-c2nc3ccccc3s2)c(O)cc1OCC(=O)NN,-35.9,"3.66 µM [falling, full curve]",
CSc1ccccc1C(=O)NCCSc1ccccc1,35.5,"0.82 µM [rising, full curve]","23.1 µM [rising, partial curve]"
CC(C1CC2CCC1C2)n1c(-c2ccco2)n[nH]c1=S (stereo not given),,"2.31 µM [rising, partial curve]","3.26 µM [rising, partial curve]"
